Measured values reported in the supplement of paper PMC10849652.
Some of the results follow.

Sequences of proteins named here, by UniProt entry; tags and fusion partners are left off. A change or cut given only in a name is not applied to a line headed by its entry.
UniProt Q9HCP0: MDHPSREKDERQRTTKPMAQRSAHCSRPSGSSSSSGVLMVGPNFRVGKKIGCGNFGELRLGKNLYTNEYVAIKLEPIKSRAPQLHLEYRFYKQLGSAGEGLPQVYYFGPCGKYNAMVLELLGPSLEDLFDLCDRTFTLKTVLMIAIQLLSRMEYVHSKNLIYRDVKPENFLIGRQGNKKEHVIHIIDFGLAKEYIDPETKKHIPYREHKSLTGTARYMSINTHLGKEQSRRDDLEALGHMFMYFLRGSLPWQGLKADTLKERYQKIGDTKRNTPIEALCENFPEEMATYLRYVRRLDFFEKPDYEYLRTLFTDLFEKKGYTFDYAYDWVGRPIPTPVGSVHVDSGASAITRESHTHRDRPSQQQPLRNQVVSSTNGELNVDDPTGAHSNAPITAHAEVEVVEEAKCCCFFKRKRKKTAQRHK
UniProt O14579: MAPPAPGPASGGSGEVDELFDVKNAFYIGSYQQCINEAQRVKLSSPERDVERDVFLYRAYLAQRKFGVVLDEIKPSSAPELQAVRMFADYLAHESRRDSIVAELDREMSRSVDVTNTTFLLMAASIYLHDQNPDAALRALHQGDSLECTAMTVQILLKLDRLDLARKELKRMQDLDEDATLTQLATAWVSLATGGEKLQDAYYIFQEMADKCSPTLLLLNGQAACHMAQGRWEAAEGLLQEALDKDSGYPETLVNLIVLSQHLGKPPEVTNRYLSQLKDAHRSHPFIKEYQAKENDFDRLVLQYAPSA
UniProt Q8NI60: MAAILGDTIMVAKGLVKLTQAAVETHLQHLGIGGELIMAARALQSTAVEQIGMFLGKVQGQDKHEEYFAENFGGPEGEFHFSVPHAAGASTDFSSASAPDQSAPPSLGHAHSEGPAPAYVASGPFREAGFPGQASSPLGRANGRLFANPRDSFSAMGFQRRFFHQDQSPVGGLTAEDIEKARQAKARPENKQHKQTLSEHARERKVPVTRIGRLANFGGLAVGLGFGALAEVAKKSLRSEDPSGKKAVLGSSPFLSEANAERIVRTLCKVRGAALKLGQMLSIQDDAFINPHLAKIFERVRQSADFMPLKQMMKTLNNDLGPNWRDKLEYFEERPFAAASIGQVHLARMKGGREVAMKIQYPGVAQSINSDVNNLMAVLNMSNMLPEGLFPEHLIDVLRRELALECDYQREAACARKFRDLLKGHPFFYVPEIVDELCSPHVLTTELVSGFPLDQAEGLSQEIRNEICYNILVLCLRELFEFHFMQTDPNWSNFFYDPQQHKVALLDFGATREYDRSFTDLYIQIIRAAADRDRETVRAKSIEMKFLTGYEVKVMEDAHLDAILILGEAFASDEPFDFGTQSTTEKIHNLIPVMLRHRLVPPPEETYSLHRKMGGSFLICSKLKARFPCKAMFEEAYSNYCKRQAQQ
UniProt P48729: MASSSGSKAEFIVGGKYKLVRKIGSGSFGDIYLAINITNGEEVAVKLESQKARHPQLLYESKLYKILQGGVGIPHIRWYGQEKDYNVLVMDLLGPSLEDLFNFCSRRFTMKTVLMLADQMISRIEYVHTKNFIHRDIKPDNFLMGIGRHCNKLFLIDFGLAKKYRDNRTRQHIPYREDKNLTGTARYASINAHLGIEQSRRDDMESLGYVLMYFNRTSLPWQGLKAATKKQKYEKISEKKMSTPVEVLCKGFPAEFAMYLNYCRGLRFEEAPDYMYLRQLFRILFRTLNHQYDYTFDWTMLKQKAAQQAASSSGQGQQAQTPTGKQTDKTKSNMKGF
UniProt Q86T23: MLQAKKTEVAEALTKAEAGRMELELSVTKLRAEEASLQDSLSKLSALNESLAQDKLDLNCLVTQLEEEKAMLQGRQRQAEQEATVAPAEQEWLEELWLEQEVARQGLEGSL
UniProt Q99627: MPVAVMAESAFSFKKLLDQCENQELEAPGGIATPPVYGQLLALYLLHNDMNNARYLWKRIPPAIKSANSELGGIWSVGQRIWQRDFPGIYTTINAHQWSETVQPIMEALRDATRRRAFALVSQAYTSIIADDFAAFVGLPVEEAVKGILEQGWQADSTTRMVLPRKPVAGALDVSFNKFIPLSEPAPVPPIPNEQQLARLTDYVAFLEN
UniProt Q9Y6M4: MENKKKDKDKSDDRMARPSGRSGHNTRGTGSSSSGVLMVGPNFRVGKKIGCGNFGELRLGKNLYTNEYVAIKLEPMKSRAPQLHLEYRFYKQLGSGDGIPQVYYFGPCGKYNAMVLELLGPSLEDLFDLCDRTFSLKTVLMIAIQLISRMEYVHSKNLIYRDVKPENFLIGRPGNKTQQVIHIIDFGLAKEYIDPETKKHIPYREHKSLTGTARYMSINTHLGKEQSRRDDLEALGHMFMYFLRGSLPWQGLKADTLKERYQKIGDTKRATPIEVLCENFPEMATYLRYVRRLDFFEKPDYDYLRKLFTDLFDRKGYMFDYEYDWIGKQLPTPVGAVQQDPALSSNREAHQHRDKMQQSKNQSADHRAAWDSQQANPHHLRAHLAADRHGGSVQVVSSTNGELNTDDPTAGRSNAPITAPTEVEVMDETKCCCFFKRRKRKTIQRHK
UniProt P09669, whole entry, looked up: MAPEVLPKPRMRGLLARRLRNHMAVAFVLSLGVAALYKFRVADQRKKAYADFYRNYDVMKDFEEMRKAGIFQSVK
UniProt P00450: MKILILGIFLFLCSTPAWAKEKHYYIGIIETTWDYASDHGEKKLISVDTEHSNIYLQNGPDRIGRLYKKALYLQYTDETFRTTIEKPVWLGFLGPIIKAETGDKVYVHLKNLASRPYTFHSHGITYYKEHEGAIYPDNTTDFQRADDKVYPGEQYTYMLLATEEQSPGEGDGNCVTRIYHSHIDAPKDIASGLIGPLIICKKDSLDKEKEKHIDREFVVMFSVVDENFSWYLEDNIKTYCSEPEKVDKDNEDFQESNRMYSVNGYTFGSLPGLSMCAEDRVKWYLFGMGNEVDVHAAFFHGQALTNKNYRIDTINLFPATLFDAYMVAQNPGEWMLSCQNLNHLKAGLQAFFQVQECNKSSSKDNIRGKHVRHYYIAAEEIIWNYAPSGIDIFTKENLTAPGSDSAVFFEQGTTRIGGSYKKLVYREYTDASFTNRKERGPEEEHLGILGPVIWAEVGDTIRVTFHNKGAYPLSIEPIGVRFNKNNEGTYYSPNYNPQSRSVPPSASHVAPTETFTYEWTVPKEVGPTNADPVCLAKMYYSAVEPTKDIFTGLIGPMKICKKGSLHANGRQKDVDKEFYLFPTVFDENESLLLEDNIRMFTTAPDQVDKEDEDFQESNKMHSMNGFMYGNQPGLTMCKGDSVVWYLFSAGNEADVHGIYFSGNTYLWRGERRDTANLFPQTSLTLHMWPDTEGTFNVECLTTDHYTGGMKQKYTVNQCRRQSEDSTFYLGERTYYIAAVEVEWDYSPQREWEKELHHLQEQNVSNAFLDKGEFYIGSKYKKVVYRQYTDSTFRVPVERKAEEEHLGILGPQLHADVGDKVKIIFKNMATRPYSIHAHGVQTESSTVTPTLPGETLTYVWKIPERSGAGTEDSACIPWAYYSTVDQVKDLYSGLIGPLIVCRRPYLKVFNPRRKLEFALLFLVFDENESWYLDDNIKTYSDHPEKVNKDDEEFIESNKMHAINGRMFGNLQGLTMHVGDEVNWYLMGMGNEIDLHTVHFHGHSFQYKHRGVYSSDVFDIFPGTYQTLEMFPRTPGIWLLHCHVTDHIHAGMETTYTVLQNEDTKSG
UniProt Q12887: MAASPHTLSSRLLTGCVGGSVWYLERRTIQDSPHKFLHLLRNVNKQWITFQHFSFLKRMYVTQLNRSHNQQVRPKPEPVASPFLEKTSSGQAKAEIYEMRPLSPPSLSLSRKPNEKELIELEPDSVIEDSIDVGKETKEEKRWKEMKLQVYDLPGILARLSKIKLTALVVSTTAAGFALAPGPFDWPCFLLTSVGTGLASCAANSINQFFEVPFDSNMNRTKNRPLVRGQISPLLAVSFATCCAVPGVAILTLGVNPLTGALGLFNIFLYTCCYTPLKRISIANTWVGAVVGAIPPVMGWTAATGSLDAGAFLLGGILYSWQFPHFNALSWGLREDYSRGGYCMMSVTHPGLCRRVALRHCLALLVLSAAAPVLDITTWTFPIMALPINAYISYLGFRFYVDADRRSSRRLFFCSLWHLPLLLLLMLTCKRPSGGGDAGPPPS
UniProt O75976: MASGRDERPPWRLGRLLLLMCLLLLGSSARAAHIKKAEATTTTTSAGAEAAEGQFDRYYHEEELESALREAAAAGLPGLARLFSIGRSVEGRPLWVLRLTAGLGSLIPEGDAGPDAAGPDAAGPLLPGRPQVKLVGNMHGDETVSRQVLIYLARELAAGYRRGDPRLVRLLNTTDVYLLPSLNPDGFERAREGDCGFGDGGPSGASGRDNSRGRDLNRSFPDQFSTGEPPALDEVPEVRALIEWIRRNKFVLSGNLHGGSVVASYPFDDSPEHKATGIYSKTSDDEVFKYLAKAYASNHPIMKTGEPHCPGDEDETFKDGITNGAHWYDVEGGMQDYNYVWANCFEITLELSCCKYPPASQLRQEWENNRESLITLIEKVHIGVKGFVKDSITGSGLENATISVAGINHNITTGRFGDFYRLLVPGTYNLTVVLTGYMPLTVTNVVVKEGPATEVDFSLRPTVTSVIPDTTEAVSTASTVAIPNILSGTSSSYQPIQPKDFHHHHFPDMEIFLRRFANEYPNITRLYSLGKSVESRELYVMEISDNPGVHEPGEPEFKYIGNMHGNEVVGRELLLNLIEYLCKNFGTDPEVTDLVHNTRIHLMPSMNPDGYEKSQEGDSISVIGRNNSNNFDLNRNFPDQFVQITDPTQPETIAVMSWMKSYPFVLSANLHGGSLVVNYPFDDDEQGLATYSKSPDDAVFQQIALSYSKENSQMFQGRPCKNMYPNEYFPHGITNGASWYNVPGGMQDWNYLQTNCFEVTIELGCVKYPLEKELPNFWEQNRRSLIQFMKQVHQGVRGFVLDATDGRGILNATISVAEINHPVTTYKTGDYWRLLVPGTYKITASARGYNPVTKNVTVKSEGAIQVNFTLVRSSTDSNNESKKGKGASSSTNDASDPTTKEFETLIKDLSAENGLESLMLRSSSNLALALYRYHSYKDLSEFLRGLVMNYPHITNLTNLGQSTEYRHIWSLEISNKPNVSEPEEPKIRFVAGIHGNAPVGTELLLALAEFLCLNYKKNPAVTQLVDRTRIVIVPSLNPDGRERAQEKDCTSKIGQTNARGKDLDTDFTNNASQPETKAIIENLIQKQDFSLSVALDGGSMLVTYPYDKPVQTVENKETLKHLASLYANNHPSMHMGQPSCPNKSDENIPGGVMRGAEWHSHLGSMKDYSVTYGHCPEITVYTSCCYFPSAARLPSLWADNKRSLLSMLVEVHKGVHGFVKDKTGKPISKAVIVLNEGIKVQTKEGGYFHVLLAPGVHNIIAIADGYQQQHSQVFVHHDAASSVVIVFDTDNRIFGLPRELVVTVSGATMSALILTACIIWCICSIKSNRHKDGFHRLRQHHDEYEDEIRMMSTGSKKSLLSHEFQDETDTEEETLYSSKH
UniProt Q16630, whole entry, looked up: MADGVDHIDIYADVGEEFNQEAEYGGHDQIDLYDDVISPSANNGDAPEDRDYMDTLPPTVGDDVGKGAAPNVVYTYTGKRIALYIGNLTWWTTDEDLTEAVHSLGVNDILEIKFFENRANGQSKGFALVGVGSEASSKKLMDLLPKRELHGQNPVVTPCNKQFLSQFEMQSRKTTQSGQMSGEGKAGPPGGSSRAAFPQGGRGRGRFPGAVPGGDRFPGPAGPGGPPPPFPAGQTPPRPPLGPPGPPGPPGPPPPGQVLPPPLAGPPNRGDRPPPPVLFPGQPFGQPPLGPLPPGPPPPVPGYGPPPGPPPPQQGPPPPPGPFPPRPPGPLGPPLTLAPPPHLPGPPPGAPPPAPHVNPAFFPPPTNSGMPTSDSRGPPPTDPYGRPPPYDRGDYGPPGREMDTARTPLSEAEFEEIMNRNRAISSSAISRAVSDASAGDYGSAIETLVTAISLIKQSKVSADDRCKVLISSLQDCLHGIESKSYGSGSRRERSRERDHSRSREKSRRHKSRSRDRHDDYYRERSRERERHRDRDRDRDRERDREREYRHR
UniProt Q9NQ92: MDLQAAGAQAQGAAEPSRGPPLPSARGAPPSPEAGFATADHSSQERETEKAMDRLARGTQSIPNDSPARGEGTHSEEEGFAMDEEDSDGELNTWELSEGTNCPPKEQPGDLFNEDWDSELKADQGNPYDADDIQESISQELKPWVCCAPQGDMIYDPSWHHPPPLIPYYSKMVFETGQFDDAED
UniProt P10606, whole entry, looked up: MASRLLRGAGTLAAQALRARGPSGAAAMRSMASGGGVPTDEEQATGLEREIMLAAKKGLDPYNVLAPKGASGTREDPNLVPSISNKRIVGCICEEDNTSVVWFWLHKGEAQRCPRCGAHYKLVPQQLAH
UniProt Q9UBW8: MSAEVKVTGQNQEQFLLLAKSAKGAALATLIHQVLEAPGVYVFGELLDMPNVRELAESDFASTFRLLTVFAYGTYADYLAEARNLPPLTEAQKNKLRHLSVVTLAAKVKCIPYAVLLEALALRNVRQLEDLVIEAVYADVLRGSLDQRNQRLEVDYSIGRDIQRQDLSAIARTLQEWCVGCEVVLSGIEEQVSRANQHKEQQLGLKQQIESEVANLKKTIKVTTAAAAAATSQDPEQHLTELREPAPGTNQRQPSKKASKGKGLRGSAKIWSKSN

Legend:
Test in all cases: log2 fold change, soluble protein after heating vs DMSO (PISA); higher = thermal stabilisation; K562 cells, 10 uM, 30 min; active = over 0.2 and 3.5 SD of the protein, either way, in both replicates (recomputed)
[1] = compound: C1=CC=C(C=C1)[C@H](COC2=CC3=C(C=C2)NC(=O)N3)NC(=O)C4=CC=CN(C4=O)CC5=CC(=C(C=C5)F)F
Outline: (§1)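 Values are thermal stability changes relative to control samples and are taken from duplicates. They are stated as log2 fold changes. Before quantification by TMTpro 16plex LC-MS/MS with equalised channel sums, K562 cells at 2×10^6 cells/mL were treated with 10 μM compound for 30 min, heated in aliquots for 3 min across 48°C-58°C, pooled, extracted in PBS with 0.5% NP-40 at 4°C, and centrifuged at 21,000xg for 90 min to give the soluble supernatant.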

[2] = compound: CC1=C(SC2=C1C(=N[C@H](C3=NN=C(N32)C)CC(=O)N)C4=CC=C(C=C4)Cl)C
Outline: as §1

[3] = compound: CC1=C2C(=CC=C1)N=C(N(C2=O)C3=CC=CC=C3C)CN4C=NC5=C(N=CN=C54)N
Outline: as §1

[4] = compound: Cc1sc2c(c1C)C(c1ccc(Cl)cc1)=N[C@@H](CC(=O)OC(C)(C)C)c1nnc(C)n1-2
Outline: as §1

[5] = compound: c1ccc([C@@H]2C[C@H]2NC2CCNCC2)cc1
Outline: as §1

Measured: log2 fold change

CSNK1G1 (UniProt Q9HCP0)
inactive: [1] 0.006

COPE (UniProt O14579)
inactive: [1] -0.045 | [2] 0.033 | [3] 0.001 | [4] 0.159 | [5] 0.038

COQ8A (UniProt Q8NI60)
inactive: [1] 0.001 | [2] 0.125 | [3] -0.063 | [4] -0.022 | [5] -0.011

CSNK1A1 isoform 3 (UniProt P48729)
inactive: [1] -0.061

CROCCP2 (UniProt Q86T23)
inactive: [1] -0.452

CRNN (UniProt Q9UBG3)
inactive: [1] 0.974

COPS8 (UniProt Q99627)
inactive: [1] 0.002 | [2] 0.086 | [3] 0.039 | [4] -0.123 | [5] -0.014

CRELD2 isoform 5 (UniProt Q6UXH1)
inactive: [1] -0.063 | [2] 0.037 | [3] -0.049 | [4] -0.028 | [5] -0.012

COMMD4 (UniProt Q9H0A8)
inactive: [1] -0.035 | [2] -0.05 | [3] 0.026 | [4] -0.019 | [5] -0.035

COLGALT1 (UniProt Q8NBJ5)
inactive: [1] 0.029 | [2] -0.062 | [3] -0.034 | [4] -0.013 | [5] -0.019

COPS4 (UniProt Q9BT78)
inactive: [1] 0.04 | [2] 0.023 | [3] 0.016 | [4] -0.01 | [5] -0.011

CSNK1G3 (UniProt Q9Y6M4)
inactive: [1] 0.054 | [2] -0.074 | [3] 0.049 | [4] 0 | [5] -0.058

COX6C (UniProt P09669)
inactive: [1] -0.023 | [2] 0.022 | [3] 0.012 | [4] -0.035 | [5] -0.026

CPSF4 (UniProt O95639)
inactive: [1] 0.351

CP (UniProt P00450)
inactive: [1] 0.169

COX10 (UniProt Q12887)
inactive: [1] 0.018 | [2] 0.025 | [3] -0.021 | [4] 0.019 | [5] 0.053

CSK (UniProt P41240)
inactive: [1] -0.096 | [2] 0.051 | [3] 0.057 | [4] 0.011 | [5] -0.032

COMT (UniProt P21964)
inactive: [1] 0.024 | [2] 0.142 | [3] 0.09 | [4] -0.028 | [5] -0.038

CPD (UniProt O75976)
inactive: [1] 0.008 | [2] 0.014 | [3] 0.044 | [4] -0.013 | [5] 0.053

CPSF6 isoform 2 (UniProt Q16630)
inactive: [1] 0.036 | [2] -0.038 | [3] 0.048 | [4] 0.02 | [5] -0.016

COPZ1 isoform 4 (UniProt P61923)
inactive: [1] 0.016 | [2] 0.126 | [3] 0.014 | [4] -0.153 | [5] -0.083

COPRS (UniProt Q9NQ92)
inactive: [1] -0.044 | [2] 0.035 | [3] 0.006 | [4] -0.019 | [5] -0.018

CS (UniProt F8VU34)
inactive: [1] -0.03

CRACR2A isoform 2 (UniProt Q9BSW2)
inactive: [1] 0.045 | [2] 0.034 | [3] 0.078 | [4] 0.001 | [5] -0.023

CSNK2B (UniProt P67870)
inactive: [1] -0.047 | [2] 0.043 | [3] 0 | [4] -0.028 | [5] 0.018

COX18 (UniProt Q8N8Q8)
inactive: [1] 0.045 | [2] 0.031 | [3] 0.053 | [4] -0.007 | [5] -0.004

COX5B (UniProt P10606)
inactive: [1] 0.015 | [2] 0.104 | [3] -0.006 | [4] -0.126 | [5] -0.099

COPS7A (UniProt Q9UBW8)
inactive: [1] -0.008 | [2] 0.073 | [3] 0.036 | [4] 0.001 | [5] -0.007

CPSF3 (UniProt Q9UKF6)
inactive: [1] -0.016 | [2] 0.024 | [3] 0.036 | [4] -0.026 | [5] 0.009
